Measurements published in patent publication US20030199476A1, “Medicament for the stimulation of leucopoiesis and treatment of tumour and protozoan diseases acarinosis and arthropod-borne diseases and a method for production thereof” (priority 2000, published 2003).
Some entries share one result that the patent states for a list of compounds. At least one structure is not confirmed: it was looked up by name or label, or the drawing left a doubt.

Test: Toxicity tests
Format: in vivo
Conditions: rats/mice; form not stated
Description: Toxicity and Activity Tests

| SMILES | Toxicity |
| --- | --- |
| CCCCCCCC/C=C\CCCCCCCCOP(=O)([O-])OCC[N+](C)(C)C [APC 9, oleylphosphocholine] | reached at 100 μmol |
| CCCCCCCCCCCCCCCCCCCOP(=O)([O-])OCC[N+](C)(C)C [Nonadecyl-PC] | reached at 100 μmol |
